# Assay results taken from the supplement of paper PMC8728848.
# The list shows a part of the results.
# What was measured:
# Experiment in all cases: glycan array binding signal (z-score within array); higher = stronger binding
# Conditions in all cases: glycan notation: IUPAC condensed, linker removed
# [1] = molecular target: Gal(b1-4)GlcNAc(b1-3)Gal(b1-4)GlcNAc(b1-2)[Gal(b1-4)GlcNAc(b1-3)Gal(b1-4)GlcNAc(b1-6)]Man(a1-6)[Gal(b1-4)GlcNAc(b1-3)Gal(b1-4)GlcNAc(b1-2)Man(a1-3)]Man(b1-4)GlcNAc(b1-4)GlcNAc
# Outline: (§1)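 The binding signal is a Z-score computed within each array. Data were drawn from 3228 arrays in the Consortium for Functional Glycomics database, restricted to those with a known protein sequence. Scores were averaged over arrays of the same protein sequence at different concentrations or buffers, and over linkers, and negative values can be taken as non-binding.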
# [2] = molecular target: Gal(b1-4)GlcNAc(b1-3)Gal(b1-4)GlcNAc(b1-2)[Gal(b1-4)GlcNAc(b1-3)Gal(b1-4)GlcNAc(b1-6)]Man(a1-6)[Gal(b1-4)GlcNAc(b1-3)Gal(b1-4)GlcNAc(b1-2)Man(a1-3)]Man(b1-4)GlcNAc(b1-4)[Fuc(a1-6)]GlcNAc
# Outline: as §1
# [3] = molecular target: Gal(b1-4)GlcNAc(b1-3)Gal(b1-4)GlcNAc(b1-3)Gal(b1-4)GlcNAc
# Outline: as §1
# [4] = molecular target: Gal(b1-4)GlcNAc(b1-3)Gal(b1-4)GlcNAc(b1-3)Gal(b1-4)GlcNAc(b1-2)Man(a1-3)[Gal(b1-4)GlcNAc(b1-3)Gal(b1-4)GlcNAc(b1-3)Gal(b1-4)GlcNAc(b1-2)Man(a1-6)]Man(b1-4)GlcNAc(b1-4)GlcNAc
# Outline: as §1
# [5] = molecular target: Gal(b1-4)GlcNAc(b1-3)Gal(b1-4)GlcNAc(b1-3)Gal(b1-4)GlcNAc(b1-2)Man(a1-3)[Gal(b1-4)GlcNAc(b1-3)Gal(b1-4)GlcNAc(b1-3)Gal(b1-4)GlcNAc(b1-2)Man(a1-6)]Man(b1-4)GlcNAc(b1-4)[Fuc(a1-6)]GlcNAc
# Outline: as §1
# [6] = molecular target: Gal(b1-4)GlcNAc(b1-3)Gal(b1-4)GlcNAc(b1-3)Gal(b1-4)GlcNAc(b1-2)[Gal(b1-4)GlcNAc(b1-3)Gal(b1-4)GlcNAc(b1-3)Gal(b1-4)GlcNAc(b1-6)]Man(a1-6)[Gal(b1-4)GlcNAc(b1-3)Gal(b1-4)GlcNAc(b1-3)Gal(b1-4)GlcNAc(b1-2)Man(a1-3)]Man(b1-4)GlcNAc(b1-4)[Fuc(a1-6)]GlcNAc
# Outline: as §1
# [7] = molecular target: Gal(b1-4)GlcNAc(b1-3)Gal(b1-4)GlcNAc(b1-3)Gal(b1-4)GlcNAc(b1-3)Gal(b1-4)GlcNAc(b1-2)Man(a1-3)[Gal(b1-4)GlcNAc(b1-3)Gal(b1-4)GlcNAc(b1-3)Gal(b1-4)GlcNAc(b1-3)Gal(b1-4)GlcNAc(b1-2)Man(a1-6)]Man(b1-4)GlcNAc(b1-4)GlcNAc
# Outline: as §1
# [8] = molecular target: Gal(b1-4)GlcNAc(b1-3)Gal(b1-4)GlcNAc(b1-3)Gal(b1-4)GlcNAc(b1-3)Gal(b1-4)GlcNAc(b1-2)Man(a1-3)[Gal(b1-4)GlcNAc(b1-3)Gal(b1-4)GlcNAc(b1-3)Gal(b1-4)GlcNAc(b1-3)Gal(b1-4)GlcNAc(b1-2)Man(a1-6)]Man(b1-4)GlcNAc(b1-4)[Fuc(a1-6)]GlcNAc
# Outline: as §1
# [9] = molecular target: Gal(b1-4)GlcNAc(b1-3)Gal(b1-4)GlcNAc(b1-3)Gal(b1-4)GlcNAc(b1-3)Gal(b1-4)GlcNAc(b1-2)[Gal(b1-4)GlcNAc(b1-3)Gal(b1-4)GlcNAc(b1-3)Gal(b1-4)GlcNAc(b1-3)Gal(b1-4)GlcNAc(b1-6)]Man(a1-6)[Gal(b1-4)GlcNAc(b1-3)Gal(b1-4)GlcNAc(b1-3)Gal(b1-4)GlcNAc(b1-3)Gal(b1-4)GlcNAc(b1-2)Man(a1-3)]Man(b1-4)GlcNAc(b1-4)[Fuc(a1-6)]GlcNAc
# Outline: as §1
# [10] = molecular target: Gal(b1-4)GlcNAc(b1-3)Gal(b1-4)GlcNAc(b1-3)Gal(b1-4)GlcNAc(b1-3)Gal(b1-4)GlcNAc(b1-3)Gal(b1-4)GlcNAc(b1-2)Man(a1-3)[Gal(b1-4)GlcNAc(b1-3)Gal(b1-4)GlcNAc(b1-3)Gal(b1-4)GlcNAc(b1-3)Gal(b1-4)GlcNAc(b1-3)Gal(b1-4)GlcNAc(b1-2)Man(a1-6)]Man(b1-4)GlcNAc(b1-4)GlcNAc
# Outline: as §1
# [11] = molecular target: Gal(b1-4)GlcNAc(b1-3)Gal(b1-4)GlcNAc(b1-3)Gal(b1-4)GlcNAc(b1-3)Gal(b1-4)GlcNAc(b1-3)Gal(b1-4)GlcNAc(b1-2)Man(a1-3)[Gal(b1-4)GlcNAc(b1-3)Gal(b1-4)GlcNAc(b1-3)Gal(b1-4)GlcNAc(b1-3)Gal(b1-4)GlcNAc(b1-3)Gal(b1-4)GlcNAc(b1-2)Man(a1-6)]Man(b1-4)GlcNAc(b1-4)[Fuc(a1-6)]GlcNAc
# Outline: as §1
# [12] = molecular target: Gal(b1-4)GlcNAc(b1-3)Gal(b1-4)GlcNAc(b1-3)Gal(b1-4)GlcNAc(b1-3)Gal(b1-4)GlcNAc(b1-3)Gal(b1-4)GlcNAc(b1-2)[Gal(b1-4)GlcNAc(b1-3)Gal(b1-4)GlcNAc(b1-3)Gal(b1-4)GlcNAc(b1-3)Gal(b1-4)GlcNAc(b1-3)Gal(b1-4)GlcNAc(b1-6)]Man(a1-6)[Gal(b1-4)GlcNAc(b1-3)Gal(b1-4)GlcNAc(b1-3)Gal(b1-4)GlcNAc(b1-3)Gal(b1-4)GlcNAc(b1-3)Gal(b1-4)GlcNAc(b1-2)Man(a1-3)]Man(b1-4)GlcNAc(b1-4)[Fuc(a1-6)]GlcNAc
# Outline: as §1
# [13] = molecular target: Gal(b1-4)GlcNAc(b1-3)Gal(b1-4)GlcNAc(b1-3)Gal(b1-4)GlcNAc(b1-3)Gal(b1-4)GlcNAc(b1-3)Gal(b1-4)GlcNAc(b1-3)Gal(b1-4)GlcNAc(b1-2)Man(a1-3)[Gal(b1-4)GlcNAc(b1-3)Gal(b1-4)GlcNAc(b1-3)Gal(b1-4)GlcNAc(b1-3)Gal(b1-4)GlcNAc(b1-3)Gal(b1-4)GlcNAc(b1-3)Gal(b1-4)GlcNAc(b1-2)Man(a1-6)]Man(b1-4)GlcNAc(b1-4)GlcNAc
# Outline: as §1
# [14] = molecular target: Gal(b1-4)GlcNAc(b1-3)Gal(b1-4)GlcNAc(b1-3)GalNAc
# Outline: as §1
# [15] = molecular target: Gal(b1-4)GlcNAc(b1-3)Gal(b1-4)GlcNAc(b1-3)[Gal(b1-4)GlcNAc(b1-3)Gal(b1-4)GlcNAc(b1-6)]GalNAc
# Outline: as §1
# [16] = molecular target: Gal(b1-4)GlcNAc(b1-3)Gal(b1-4)GlcNAc(b1-6)[Gal(b1-3)]GalNAc
# Outline: as §1
# [17] = molecular target: Gal(b1-4)GlcNAc(b1-3)Gal(b1-4)[Fuc(a1-3)]GlcNAc(b1-3)Gal(b1-4)[Fuc(a1-3)]GlcNAc
# Outline: as §1
# [18] = molecular target: Gal(b1-4)GlcNAc(b1-3)GalNAc
# Outline: as §1
# [19] = molecular target: Gal(b1-4)GlcNAc(b1-3)[Fuc(a1-3)GlcNAc(b1-6)]Gal(b1-4)Glc
# Outline: as §1
# [20] = molecular target: Gal(b1-4)GlcNAc(b1-3)[Gal(b1-4)GlcNAc(b1-6)]Gal(b1-4)GlcNAc
# Outline: as §1
# [21] = molecular target: Gal(b1-4)GlcNAc(b1-3)[GlcNAc(b1-6)]Gal(b1-4)GlcNAc
# Outline: as §1
# [22] = molecular target: Gal(b1-4)GlcNAc(b1-6)Gal(b1-4)GlcNAc
# Outline: as §1
# [23] = molecular target: Gal(b1-4)GlcNAc(b1-6)GalNAc
# Outline: as §1
# [24] = molecular target: Gal(b1-4)GlcNAc(b1-6)[Gal(b1-3)]GalNAc
# Outline: as §1
# [25] = molecular target: Gal(b1-4)GlcNAc(b1-6)[Gal(b1-4)GlcNAc(b1-3)]GalNAc
# Outline: as §1
# Gal(b1-4)GlcNAc6P = molecular target: Gal(b1-4)GlcNAc6P
# Outline: as §1
# Gal(b1-6)Gal = molecular target: Gal(b1-6)Gal
# Outline: as §1
# Gal3S(b1-3)GalNAc = molecular target: Gal3S(b1-3)GalNAc
# Outline: as §1
# Gal3S(b1-3)GlcNAc = molecular target: Gal3S(b1-3)GlcNAc
# Outline: as §1
# [26] = molecular target: Gal3S(b1-3)[Fuc(a1-4)]GlcNAc
# Outline: as §1
# Gal3S(b1-4)Glc = molecular target: Gal3S(b1-4)Glc
# Outline: as §1
# Gal3S(b1-4)Glc6S = molecular target: Gal3S(b1-4)Glc6S
# Outline: as §1
# Gal3S(b1-4)GlcNAc = molecular target: Gal3S(b1-4)GlcNAc
# Outline: as §1
# [27] = molecular target: Gal3S(b1-4)[Fuc(a1-3)]Glc6S
# Outline: as §1
# [28] = molecular target: Gal3S(b1-4)[Fuc(a1-3)]GlcNAc
# Outline: as §1
# [29] = molecular target: Gal3S(b1-4)[Fuc(a1-3)]GlcNAc6S
# Outline: as §1
# Gal3S4S(b1-4)GlcNAc = molecular target: Gal3S4S(b1-4)GlcNAc
# Outline: as §1
binder,measurement,setting,value
"Clec18Av1 (Homo sapiens), A5D8T8 (protein) MLHPETSPGRGHLLAVLLALLGTAWAEVWPPQLQEQAPMAGALNRKESFLLLSLHNRLRSWVQPPAADMRRLDWSDSLAQLAQARAALCGTPTPSLASGLWRTLQVGWNMQLLPAGLVSFVEVVSLWFAEGQRYSHAAGECARNATCTHYTQLVWATSSQLGCGRHLCSAGQAAIEAFVCAYSPRGNWEVNGKTIVPYKKGAWCSLCTASVSGCFKAWDHAGGLCEVPRNPCRMSCQNHGRLNISTCHCHCPPGYTGRYCQVRCSLQCVHGRFREEECSCVCDIGYGGAQCATKVHFPFHTCDLRIDGDCFMVSSEADTYYRARMKCQRKGGVLAQIKSQKVQDILAFYLGRLETTNEVIDSDFETRNFWIGLTYKTAKDSFRWATGEHQAFTSFAFGQPDNHGFGNCVELQASAAFNWNDQRCKTRNRYICQFAQEHISRWGPGS",glycan array binding signal (z-score),[1],-0.486
same,glycan array binding signal (z-score),[2],0.779
same,glycan array binding signal (z-score),[3],0.892
same,glycan array binding signal (z-score),[4],0.526
same,glycan array binding signal (z-score),[5],1.59
same,glycan array binding signal (z-score),[6],1.09
same,glycan array binding signal (z-score),[7],1.2
same,glycan array binding signal (z-score),[8],-0.043
same,glycan array binding signal (z-score),[9],0.227
same,glycan array binding signal (z-score),[10],0.95
same,glycan array binding signal (z-score),[11],2.4
same,glycan array binding signal (z-score),[12],2.85
same,glycan array binding signal (z-score),[13],-0.16
same,glycan array binding signal (z-score),[14],-0.32
same,glycan array binding signal (z-score),[15],0.461
same,glycan array binding signal (z-score),[16],0.142
same,glycan array binding signal (z-score),[17],-0.709
same,glycan array binding signal (z-score),[18],-0.386
same,glycan array binding signal (z-score),[19],-0.175
same,glycan array binding signal (z-score),[20],1.08
same,glycan array binding signal (z-score),[21],1.16
same,glycan array binding signal (z-score),[22],0.508
same,glycan array binding signal (z-score),[23],-0.134
same,glycan array binding signal (z-score),[24],0.25
same,glycan array binding signal (z-score),[25],0.15
same,glycan array binding signal (z-score),Gal(b1-4)GlcNAc6P,0.695
same,glycan array binding signal (z-score),Gal(b1-6)Gal,0.799
same,glycan array binding signal (z-score),Gal3S(b1-3)GalNAc,-0.82
same,glycan array binding signal (z-score),Gal3S(b1-3)GlcNAc,-0.789
same,glycan array binding signal (z-score),[26],0.307
same,glycan array binding signal (z-score),Gal3S(b1-4)Glc,-0.684
same,glycan array binding signal (z-score),Gal3S(b1-4)Glc6S,-0.717
same,glycan array binding signal (z-score),Gal3S(b1-4)GlcNAc,-0.405
same,glycan array binding signal (z-score),[27],0.003
same,glycan array binding signal (z-score),[28],-0.715
same,glycan array binding signal (z-score),[29],-0.271
same,glycan array binding signal (z-score),Gal3S4S(b1-4)GlcNAc,-0.821
